# Publication doi:10.1101/2023.07.20.548338
# The chains behind the UniProt entries cited, without tags or fusion partners. Residues count along the entry.
# UniProt D3Z7P3, residues 55-674: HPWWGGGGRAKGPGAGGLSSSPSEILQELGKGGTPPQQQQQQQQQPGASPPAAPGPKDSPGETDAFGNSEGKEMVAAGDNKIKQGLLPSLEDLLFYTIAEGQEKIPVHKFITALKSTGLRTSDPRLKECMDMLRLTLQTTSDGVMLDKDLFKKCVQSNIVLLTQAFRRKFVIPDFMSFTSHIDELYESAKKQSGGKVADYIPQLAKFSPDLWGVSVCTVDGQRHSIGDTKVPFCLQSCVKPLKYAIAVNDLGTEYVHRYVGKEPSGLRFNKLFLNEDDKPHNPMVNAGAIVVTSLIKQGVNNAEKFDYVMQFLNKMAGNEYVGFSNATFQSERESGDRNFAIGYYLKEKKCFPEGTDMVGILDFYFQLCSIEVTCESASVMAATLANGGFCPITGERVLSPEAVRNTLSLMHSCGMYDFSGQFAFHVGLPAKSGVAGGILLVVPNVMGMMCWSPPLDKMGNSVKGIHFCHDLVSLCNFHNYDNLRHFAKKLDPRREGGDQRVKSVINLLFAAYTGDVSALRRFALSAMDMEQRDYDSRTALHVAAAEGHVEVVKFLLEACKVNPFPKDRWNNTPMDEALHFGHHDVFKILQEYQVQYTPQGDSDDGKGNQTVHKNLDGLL
# No constants are given. Whether binding was seen depends on the method and setting. Binding seen in cells or lysates may run through a third protein. A yes stands for co-enrichment or nearness to the bait. Other partners may have been found.
# Target: T1, PDZD8-APEX2, stably expressed in MEFs (not stated (T527 is the human residue number)) (UniProt Q8NEN9)
# T1 sequence: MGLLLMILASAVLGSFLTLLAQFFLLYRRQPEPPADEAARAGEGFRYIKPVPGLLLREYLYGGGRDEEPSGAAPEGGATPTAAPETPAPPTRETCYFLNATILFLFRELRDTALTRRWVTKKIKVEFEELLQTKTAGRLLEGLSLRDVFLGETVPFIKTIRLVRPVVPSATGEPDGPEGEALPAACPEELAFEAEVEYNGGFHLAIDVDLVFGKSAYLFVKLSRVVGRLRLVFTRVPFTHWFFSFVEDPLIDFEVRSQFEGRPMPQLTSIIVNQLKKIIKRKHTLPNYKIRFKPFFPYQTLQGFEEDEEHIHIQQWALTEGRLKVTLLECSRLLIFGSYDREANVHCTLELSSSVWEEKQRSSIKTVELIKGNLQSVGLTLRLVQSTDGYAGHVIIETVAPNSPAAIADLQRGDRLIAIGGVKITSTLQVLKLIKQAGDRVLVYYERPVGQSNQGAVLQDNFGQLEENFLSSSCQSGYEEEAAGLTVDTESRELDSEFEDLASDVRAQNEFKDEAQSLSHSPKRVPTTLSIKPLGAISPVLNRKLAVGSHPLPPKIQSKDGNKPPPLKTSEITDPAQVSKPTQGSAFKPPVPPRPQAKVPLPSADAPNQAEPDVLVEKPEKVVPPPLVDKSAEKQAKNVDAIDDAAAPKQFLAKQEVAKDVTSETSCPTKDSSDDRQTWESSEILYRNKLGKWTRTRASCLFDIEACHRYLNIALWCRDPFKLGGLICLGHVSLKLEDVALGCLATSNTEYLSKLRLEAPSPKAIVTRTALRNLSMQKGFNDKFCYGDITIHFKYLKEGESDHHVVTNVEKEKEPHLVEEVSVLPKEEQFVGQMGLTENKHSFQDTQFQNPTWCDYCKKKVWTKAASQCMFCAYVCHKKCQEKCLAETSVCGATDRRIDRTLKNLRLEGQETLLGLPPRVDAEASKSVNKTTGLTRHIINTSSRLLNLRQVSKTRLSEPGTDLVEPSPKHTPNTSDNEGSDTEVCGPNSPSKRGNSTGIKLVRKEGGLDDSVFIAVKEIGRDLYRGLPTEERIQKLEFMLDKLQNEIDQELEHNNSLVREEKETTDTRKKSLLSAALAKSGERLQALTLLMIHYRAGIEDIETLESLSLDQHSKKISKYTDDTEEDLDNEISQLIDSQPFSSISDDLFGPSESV
# Experiment: proximity labelling
substance,measurement,value
"glutaminase 1 (GLS1; both KGA and GAC), endogenous in MEFs (from UniProt D3Z7P3 55-674)",binding,binds
